The other results are listed elsewhere or left out.
system: T1, CTL2-GFP (C. trachomatis L2/434/Bu, GFP-expressing); set-up: species or system HeLa; Intracellular C. trachomatis growth in HeLa cells, bulk GFP fluorescence relative to DMSO; conditions: bulk GFP, single well; 28.5 h, 10 µM; inhibitor
T1 construct: L2/434/Bu, GFP-expressing

Compound | % of control remaining [%]
COc1ccc2[nH]c3c(c2c1)CCN(CC(C)O)C31CCN(CCOc2ccccc2)C1 (stereo not drawn) [CBK084612T] | 53.4395
CN(C)CCN(C(=O)Cc1ccc2c(c1)CCC2)C1CCN(C)CC1 [CBK282182] | 139.685
COc1cc([N+](=O)[O-])c2[nH]c(C(=O)O)c(CCNC(C)=O)c2c1 [CBK260895] | 114.208
Cn1c(=O)c2c(nc(N3CCOCC3)n2CCC/N=C2\CCCCN2)n(C)c1=O [CBK218356] | 128.055
CCN1C(=O)c2ccccc2C(=O)[C@@]2(C)CN(C(=O)C(C)C)C[C@@H]12 [CBK281680] | 130.1
CCOc1ccc(-c2cncc(NCCc3ccncc3)n2)cc1 [CBK065774] | 192.74
CC(C)(C)c1cc(C[C@H]2CNCC[C@H]2CC(=O)Nc2nccs2)no1 [CBK288798] | 125.936
Cc1cc(I)ccc1OCCCCN1CCN(C)CC1 [CBK269652C] | 140.927
O=C(NCc1ccncc1)C1CCCN(c2nc3c(-c4ccccc4)csc3c(=O)[nH]2)C1 (stereo not drawn) [CBK215493] | 108.839
CC(C)CCN1CCn2nc(CNc3cnccn3)cc2C1 [CBK307540] | 118.08
O=C(NCCN1CCCC1)c1cc2cc(Cl)ccc2[nH]1 [CBK107267] | 71.8978
Cc1nn(C)c(C)c1NC(=O)CN1CCN(c2cccc(Cl)c2)CC1 [CBK306052] | 134.194
O=C1NCC2(C/C=C/CCOc3ccccc31)CCN(Cc1ccccn1)CC2 [CBK292159] | 116.979
Cc1nc(C)c(C(=O)C2=C(O)C(=O)N(CCCN3CCOCC3)C2c2ccncc2)s1 (stereo not drawn) [CBK235187] | 159.717
O=C(NCC1COc2ccccc2O1)C1(c2ccccc2)CCCC1 (stereo not drawn) [CBK149524] | 88.4659
Cc1cc(C)n(C(C(=O)NCC2(C)COC2)C(C)C)n1 (stereo not drawn) [CBK281758] | 125.361
OCCN1CCN(c2cc(N3CCN(c4ccccn4)CC3)n3nccc3n2)CC1 [CBK037129] | 176.024
Cn1cc(CCNC(=O)N2CCCN(Cc3cccs3)CC2)cn1 [CBK305393] | 134.231
CN(C)CCCn1c(=O)n(CC(=O)O)c(=O)c2c3c(sc21)CCC3 [CBK286783] | 116.846
CC(=O)Nc1ccc(S(=O)(=O)N2CCC(n3c(=O)[nH]c4ccccc43)CC2)cc1 [CBK149696] | 120.658

In another format: entries from further up
Compound,% of control remaining [%]
OCCN1CCN(c2cc(N3CCN(c4ccccn4)CC3)n3nccc3n2)CC1 [CBK037129],176.024
CN(C)CCCn1c(=O)n(CC(=O)O)c(=O)c2c3c(sc21)CCC3 [CBK286783],116.846

Additional structures:

Compound | % of control remaining [%]
CN1CCN(C(=O)c2ccc(-c3cccc(C(F)(F)F)c3)nc2N2CCOCC2)CC1 [CBK106194] | 111.504
CC(NC(=O)CCn1c(C(F)F)cc2cccnc21)c1ccncc1 (stereo not drawn) [CBK285069] | 135.285
CCN1CCN(Cc2c(C(C)(C)C)[nH]c3ncccc23)CC1 [CBK285341] | 120.471
Cc1nc(C2CCCN(C(=O)c3cccnc3)C2)c2sccn12 (stereo not drawn) [CBK285233] | 133.186
Cc1ccc(C(=O)NCCN2CCC(O)(c3ccc(F)cc3)CC2)o1 [CBK283167] | 112.224
C=CCOc1ccc(C(=O)C2=C(O)C(=O)N(Cc3cccnc3)C2c2ccc(Cl)cc2)c(C)c1 (stereo not drawn) [CBK264716] | 119.986
CSCCCNC(=O)c1cnn2c(C)c(Cc3cccnc3)c(C)nc12 [CBK162164] | 110.864
NS(=O)(=O)c1ccc(NC(=O)CN2CCN(c3ccc([N+](=O)[O-])cc3)CC2)cc1 [CBK266232] | 150.872
CCCN(Cc1nccn1C)C(=O)Cn1nc(C)c2ccccc2c1=O [CBK307441] | 130.852
CCN(Cc1ccncc1)C(=O)NCc1ccc2c(c1)OCO2 [CBK145056] | 80.4075
Cc1nc2ccc(C(=O)NC3=NN(c4ccccc4)C(=O)C3)cn2c1N(C)C(=O)CCc1ccccc1 [CBK146817] | 91.0875
O=C(/C=C/c1ccc2c(c1)OCO2)N1CCCC2(CCN(C(=O)c3ccoc3)C2)C1 (stereo not drawn) [CBK131622] | 107.895
Cc1ccc(C)c(NC(=O)c2sc3cc(C)ccc3c2Cl)c1 [CBK263648] | 100
O=C1CCCC2=C1C(c1ccccc1O)c1c([nH][nH]c1=O)N2 (stereo not drawn) [CBK288442] | 140.266
CCC(C)(C)c1ccc(S(=O)(=O)Nc2ccc(F)cc2F)cc1 [CBK200039] | 121.966
O=C(COc1ccc(S(=O)(=O)N2CCOCC2)cc1)NCc1ccccc1 [CBK268533] | 107.76
O=c1/c(=C/c2cccnc2)sc2n1CN(c1cccc([N+](=O)[O-])c1)CN=2 [CBK264401] | 100
CCCC(C)c1cn(CCc2cc(O)nc(C)n2)nn1 (stereo not drawn) [CBK306871] | 119.729
OC(CN1CCC(Oc2cccc(F)c2)CC1)c1cccs1 (stereo not drawn) [CBK281453] | 126.85

— publication PMC12040169 (PLOS Biology, 2025)
